According to patent publication US9227955B2, “Compound having angiogenesis inhibitory activity, method for preparing same, and pharmaceutical composition comprising same” (Boryung Pharmaceutical Co., Ltd., priority 2011, dated 2016):
At least one structure is not confirmed: it was looked up by name or label, or the drawing left a doubt.

Assays:
Format in all cases: cell-based, human
[1] = system: AKT (serine/threonine protein kinase B); test: VEGF-induced AKT activation in HUVECs (Western blot); conditions: HUVECs pretreated 1 hr, VEGF 10 ng/ml 30 min, FIG. 9
Experimental: (§1) An examination was made to see the effect of compounds of Chemical Formula I, prepared in the Examples above, on VEGF-induced activation of AKT (serine/threonine protein kinase B)/ERK (Extracellular signal-regulated kinases) and eNOS (endothelial nitric oxide synthase) in HUVECs, as follows (endothelial nitric oxide synthase).
(§2) After 3 min of centrifugation at 4000 rpm to collect the cells, the cell pellet was washed once with PBS (phosphate buffered saline). The cell pellet suspended in a lysis buffer (50 mM HEPES pH 7.0, 250 mM NaCl, 5 mM EDTA, 0.1% Nonidet P-40, 1 mM phenylmethylsulfonyl fluoride and 0.5 mM Na orthovanadate) containing 5 μl/mL of leupeptin and aprotinin, each and the reaction was performed at 4° C. for 20 min. After the cell debris was removed by microcentrifugation, the supernatant was swiftly cooled.
(§3) Protein quantification was carried out using a Bio-Rad protein assay reagent. […]
(§4) For immunoblotting, the membrane was incubated overnight at 4° C. in a blocking solution (5% skim milk), and reacted with a primary antibody for 4 hrs. After 4 washes with Tween 20/Tris-buffered saline (TTBS), the membrane was reacted with a 1:1000 (v/v) dilution of a horseradish peroxidase-conjugated secondary antibody at room temperature for 1 hr, washed three times with TTBS, and visualized by a chemical luminescence method (Amersham Life Science).

[2] = system: ERK (Extracellular signal-regulated kinases); test: VEGF-induced ERK activation in HUVECs (Western blot); conditions: HUVECs pretreated 1 hr, VEGF 10 ng/ml 10 min, FIG. 9
Experimental: as §1, §2, §3, §4

[3] = system: eNOS (endothelial nitric oxide synthase); test: VEGF-induced eNOS activation in HUVECs (Western blot); conditions: HUVECs pretreated 1 hr, VEGF 10 ng/ml 1 hr, FIG. 9
Experimental: as §1, §2, §3, §4

For `CCN(CC)CCNC(=O)c1c(C)[nH]c(/C=C2\C(=O)Nc3ccc(F)cc32)c1C` [Sunitinib, sunitinib, reference compound], the “expression of p-AKT” value [1] was “decrease levels of both p-AKT and p-ERK”, the “expression of p-ERK” value [2] was “decrease levels of both p-AKT and p-ERK” and the p-eNOS level [3] was “downregualted”.
